Experimental data reported in patent publication US4388304A, “Angiotensin-II analogues with antagonizing effects, containing an ester group in position 8, and a process for the preparation thereof” (Richter Gedeon Vegyeszeti Gyar RT, priority 1980, dated 1983).
Part of at least one peptide drawing is inferred or uncertain, most often the ends.

Tested on: narcotized male cats
Assay: Antagonism of Hypertensin (angiotensin-II) infusion-induced blood pressure rise in narcotized male cats
Assay type: in vivo, cat
Experimental: The antagonistic effects of the new compounds of the general formula (I) were investigated on narcotized male cats. After treating the animals with a ganglion blocking agent and bisecting the cervical vagus nerves on both side, an infusion of Hypertensin (CIBA) was given to the animals at a rate of 0.5 μg/kg/min. When the blood pressure of the animals reached a steady, increased level, the substance to be tested was administered either intravenously or subcutaneously in physiological saline solution or as an aqueous solution which also contained a carrier. The blood pressure drop was measured in mm Hg units, and the extent of decrease was expressed in percent related to the value before treatment. The statistical evaluation was performed on the basis of the blood pressure differences, by Student's single sample "t" test. The term "duration of effect" denotes the period elapsed until the observation of the last, still significant (p=5%) blood pressure difference.

[1] = s.c., physiological saline, dose 100 μg/kg

With CC[C@H](C)[C@H](NC(=O)[C@H](Cc1ccc(O)cc1)NC(=O)[C@@H](NC(=O)[C@H](CCCNC(=N)N)NC(=O)CO)C(C)C)C(=O)N[C@@H](Cc1c[nH]cn1)C(=O)N1CCC[C@H]1C(=O)N[C@H](C(=O)OC)[C@@H](C)CC [(HOAA^1,Ile--OMe^8)-Ang-II, (hydroxyacetyl^1, isoleucine methyl ester^8)-angiotensin-II] the “blood pressure decrease, percent related to the value before treatment” value (i.v., dose 20 μg/kg) was 27%, the duration of effect (i.v., dose 20 μg/kg) was 42 min and the “blood pressure decrease, percent related to the value before treatment” value [1] was 16%. The duration of effect [1] was 30 min.
